Results are given in words; binding and its absence hold for the method and conditions named. Some results given as binding are weak or reduced against the parent protein; the word gives no strength.

Sequences of proteins named here, by UniProt entry; tags and fusion partners are left off.
UniProt P42224: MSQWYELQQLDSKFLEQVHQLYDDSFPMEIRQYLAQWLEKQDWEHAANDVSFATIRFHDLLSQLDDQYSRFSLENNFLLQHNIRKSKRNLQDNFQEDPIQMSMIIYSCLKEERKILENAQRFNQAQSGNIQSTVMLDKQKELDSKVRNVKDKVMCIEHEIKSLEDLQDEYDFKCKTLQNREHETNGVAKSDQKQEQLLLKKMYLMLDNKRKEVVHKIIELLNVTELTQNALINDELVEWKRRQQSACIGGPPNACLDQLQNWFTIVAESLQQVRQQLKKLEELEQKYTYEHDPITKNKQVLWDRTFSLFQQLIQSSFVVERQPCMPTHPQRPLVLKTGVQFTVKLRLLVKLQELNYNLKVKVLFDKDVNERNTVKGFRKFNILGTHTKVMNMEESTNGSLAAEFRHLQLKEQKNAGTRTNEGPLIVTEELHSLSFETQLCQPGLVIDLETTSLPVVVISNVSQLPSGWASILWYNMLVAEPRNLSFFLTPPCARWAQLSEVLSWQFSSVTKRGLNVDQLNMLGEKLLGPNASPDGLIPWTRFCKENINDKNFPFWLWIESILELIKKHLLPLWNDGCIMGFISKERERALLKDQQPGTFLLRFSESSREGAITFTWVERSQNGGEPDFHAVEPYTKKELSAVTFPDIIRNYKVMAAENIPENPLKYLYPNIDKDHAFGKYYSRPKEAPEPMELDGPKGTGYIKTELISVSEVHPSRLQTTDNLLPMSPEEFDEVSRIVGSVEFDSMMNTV
UniProt P05412: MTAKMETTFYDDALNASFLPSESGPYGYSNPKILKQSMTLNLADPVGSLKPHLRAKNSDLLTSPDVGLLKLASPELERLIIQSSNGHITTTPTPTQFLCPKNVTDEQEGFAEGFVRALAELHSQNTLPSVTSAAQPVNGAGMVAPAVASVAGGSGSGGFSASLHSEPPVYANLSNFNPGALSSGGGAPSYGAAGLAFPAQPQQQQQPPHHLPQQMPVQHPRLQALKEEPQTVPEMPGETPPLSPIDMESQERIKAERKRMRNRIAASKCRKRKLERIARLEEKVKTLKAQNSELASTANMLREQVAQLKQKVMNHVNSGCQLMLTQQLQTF

For the assay, the target named is signal transducer and activator of transcription 1 (STAT-1) (human (endogenous in HepG2 or SW480)) (UniProt P42224). In words: native gel or EMSA; nuclear extracts (5 ug) incubated 20 min at RT with 32P-labelled MMP-1 or MMP-3 promoter oligonucleotides in 20 mM HEPES pH 7.8, 1 mM MgCl2, 0.5 mM DTT, 40-80 mM KCl, 5% glycerol; antibodies to STAT-1, STAT-3, STAT-5, c-Jun or pan-Fos added for supershift or blocking; the complex is seen on DNA.

Consider c-Jun (from UniProt P05412 1-331), for which the binding result is reported as “binds”.
